Assay results reported in PMC7314967.
Results are given in words; binding and its absence hold for the method and conditions named. In cells and extracts the contact can be indirect. Some entries that bind do so weakly or less than the wild type.

Experiments:
[1] = target: STOMATAL CYTOKINESIS … 2/RIPENING-REGULATED PROTEIN 1 (SCD2/RRP1), YFP^C fusion for BiFC (Arabidopsis thaliana) (UniProt Q8RWD5); assay: split reporter; BiFC with split YFP (pSPYNE/pSPYCE) in N. benthamiana leaf epidermal cells after Agrobacterium infiltration; YFP read by confocal microscopy
[2] = target: SCD2/RRP1 with Flag tag for co-immunoprecipitation (Arabidopsis thaliana) (UniProt Q8RWD5); assay: co-IP; Arabidopsis protoplasts co-transformed, 14-16 h; lysate precipitated with anti-Flag agarose 2 h at 4 °C; blots with anti-Flag and anti-GFP
[3] = target: SCD2/RRP1, cLUC fusion for luciferase complementation (Arabidopsis thaliana) (UniProt Q8RWD5); assay: split reporter; firefly luciferase complementation imaging in N. benthamiana leaves; 0 or 100 uM ABA sprayed for 6 h before 1 mM luciferin; weaker signal with ABA

| binding [1] | binding [2] | Substance | further results |
| --- | --- | --- | --- |
| – | binds | ABI1 with GFP tag for co-immunoprecipitation (from UniProt P49597 1-434) | – |
| binds | – | PYRABACTIN … 1 (PYR1), YFP^N fusion for BiFC (from UniProt O49686 1-191) | – |

The next lines start with the substance.

| Substance | binding [1] | binding [2] | further results |
| --- | --- | --- | --- |
| ABA … 1 (ABI1), YFP^N fusion for BiFC (from UniProt P49597 1-434) | binds | – | – |
| ABI1, nLUC fusion for luciferase complementation (from UniProt P49597 1-434) | – | – | binding [3]: binds |
| PYR1 with GFP tag for co-immunoprecipitation (from UniProt O49686 1-191) | – | binds | – |
